These results are taken from PubChem BioAssay AID539 (SRMLSC, 2006).

The list shows a part of the results. Some of these compounds have results that are not shown, active ones among them.

In general, inhibition refers to the percentage by which the read-out fell short of the control.

The subject of the assay is phosphomevalonate kinase (Streptococcus pneumoniae D39). In words: phosphomevalonate kinase enzyme inhibition – biochemical, mevalonate pathway, pilot trial included, primary screen (AID 539).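 Further: 0% = full reaction with DMSO carrier and 100% = background rate without enzyme reaction.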 The note with it: purified PMK, PK/LDH-coupled NADH absorbance 340 nm; measured here: pilot screen replicates; at 10 µM; stronger effect = higher value.
Turning to `O=C(OC1CN2CCC1CC2)C(CO)(c1ccccc1)c1ccccc1` (stereo unspecified), the inhibition was 6%.
